From patent US20070155782A1, “Nk-1 receptor antagonists anesthesia recovery” (priority 2004, published 2007)

Tests used:
[1] = system: mature mongrel dogs; test: Experiment A: anesthetic recovery in dogs, 1.0 mg/kg compound of Formula Ia vs saline control; assay type: in vivo
Method: (§1) The patients utilized in the study were maintained in standard facilities with appropriate heating and ventilation. All dogs were placed under general anesthesia. The duration of anesthesia, time to extubation and time to sternal recumbency were recorded. Also noted were behaviors indicative of dysphoria such as vocalization and purposeless movement. A visual analog scale (“VAS”) was used to score the “quality” of the entire recovery period.
(§2) As used herein, the term “duration of anesthesia” is the time in minutes elapsed between intubation and cessation of anesthetic gases.
(§3) As used herein, the term “time to extubation” is the time in minutes elapsed between cessation of anesthetic gases and the need for removal of the endotracheal tube due to spontaneous swallowing. […]
(§4) Statistical Analysis. […] Duration of anesthesia, time to extubation and time to sternal recumbency data were analyzed using a paired t-test for means in Excel. Recovery VAS data were analyzed using SAS Statistical Software.
Experimental mature mongrel dogs, both male and female, weighing about 16-26 kilograms, were subcutaneously administered 1.0 mg/kg compound of Formula Ia one hour prior to preanesthetic administration. […] The duration of anesthesia, time to extubation and time to sternal recumbency were recorded. The patients were monitored continuously during the anesthetic and recovery periods. […]

[2] = system: geriatric beagles; test: Experiment B: recovery from general anesthesia in beagle dogs, 0.5 mg/kg compound of Formula Ia; assay type: in vivo
Method: as §1, §2, §3, §4
Fifteen experimental geriatric beagles, weighing 9-16 kilograms and undergoing anesthesia for dental prophylaxis, were used in this study. […] The duration of anesthesia, time to extubation and time to sternal recumbency were recorded. […]
The patients were monitored continuously during the anesthetic and recovery periods.

## COc1ccc(C(C)(C)C)cc1CN[C@H]1C2CCN(CC2)[C@H]1C(c1ccccc1)c1ccccc1 [Compound of Formula Ia, (2S,3S)-2-benzhydryl-N-(5-tert-butyl-2-methoxybenzyl)quinuclidin-3-amine]
[1]; 1 mg/kg SC one hour prior to preanesthetic, individual dogs
  Duration of Anesthesia: 30 min (10×) and 29 min and 34 min
[1]; 1 mg/kg SC, Mean ± SD of 12 dogs
  Duration of Anesthesia: 30 ± 1 min
[2]; 0.5 mg/kg SC
  Duration of anesthesia, experimental vs control group: no statistical difference
[2]; 0.5 mg/kg SC at time of pre-anesthetic medication, beagle dogs
  Duration of Anesthesia Mean ± SD: 73.43 ± 17.97 min

Where “and” joins values, the source holds several entries; their conditions need not be identical. Identical values can stand only once.
